Measured values published in patent US6395293B2, “Biodegradable implant precursor” (Atrix Laboratories, priority 1989, dated 2002).
For at least one compound, name, drawing or mass did not settle the structure.

System: bacterial infection
Assay: Implant precursor with doxycycline hyclate placed into a periodontal defect (paper example)
Format: in vivo
Settings: 5% by weight doxycycline hyclate in polymer mixture of Example 1

C[C@H]1c2cccc(O)c2C(=O)C2=C(O)[C@]3(O)C(=O)C(C(N)=O)=C(O)[C@@H](N(C)C)[C@@H]3[C@@H](O)[C@@H]21 [doxycycline]
protection against infection by drug dispensed from the solid barrier implant: provide protection against bacterial infection
